According to PubChem BioAssay (NCATS):
Several values for one entry are separate records, joined by “and”; a condition that tells them apart may be missing. Equal values may be shown once. The shares of active, inactive and inconclusive entries below differ from those in the screen. For part of these data: Potencies of inconclusive entries are doubtful fits and often do not repeat. Activity calls are given as the source filed them. The call rests on the fitted dose curve; in most records, active means well fitted curve in the direction sought with a large enough effect; inconclusive means small, poorly fitted or top-dose-only effect, or another doubt; inactive means no such curve, though single readings can be large; an effect the other way counts as inactive or inconclusive.

Key:
[1] = Quantitative High-Throughput drug screen in 47 multiple myeloma cell lines against the NCATS MIPE library collection: INA6_PLB cell viability assay (AID 1918965; further: nearly all actives have a fitted effect of over 55% in size)
How it was run: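 CellTiter-Glo ATP luminescence gave viability after 48 h compound treatment at 37C of 500 multiple myeloma cells per well. Normalisation used DMSO-only wells as 100% and media-only wells as 0% viability; primary qHTS of approved and investigational drugs.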

[2] = Quantitative High-Throughput drug screen in 47 multiple myeloma cell lines against the NCATS MIPE library collection: MM1R_ATCC cell viability assay (AID 1918981); further: nearly all actives have a fitted effect of over 35% in size
How it was run: (§1)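 ATP-based CellTiter-Glo luminescence after 48 h drug exposure (37 °C, 5% CO2) of 500 myeloma cells per well. DMSO-only wells set 100% viability, media-only wells 0%; MIPE 4.0 library added by pin tool.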

[3] = Quantitative High-Throughput drug screen in 47 multiple myeloma cell lines against the NCATS MIPE library collection: OCIMY5_PLB cell viability assay (AID 1918988); further: nearly all actives have a fitted effect of over 65% in size
How it was run: as §1

[4] = Quantitative High-Throughput drug screen in 47 multiple myeloma cell lines against the NCATS MIPE library collection: OPM1_PLB cell viability assay (AID 1918989); further: nearly all actives have a fitted effect of over 40% in size
How it was run: as §1

[5] = system: CAOV3; assay: Primary qHTS to identify gynecologic anti-cancer compounds using libraries of approved drugs and bioactive compounds (AID 1345084); details: Gynecologic cancer cell panel viability, ATPlite luminescence, 48 h; series mostly up to 57.5 µM; further: nearly all actives have a fitted effect of over 55% in size
How it was run: (§2)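 Five-concentration response, 48 h; readout is ATP-driven luciferase luminescence.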

[6] = system: HeLa; assay: as above; details: Gynecologic cancer cell panel viability, ATPlite luminescence, 48 h; series mostly up to 57.5 µM
How it was run: as §2

[7] = Quantitative High-Throughput drug screen in 47 multiple myeloma cell lines against the NCATS MIPE library collection: VP6_DJ cell viability assay (AID 1919867); details: ATP luminescence, 48 h; series mostly up to 45.8 µM; further: nearly all actives have a fitted effect of over 40% in size
How it was run: as §1

[8] = system: Hek293T; assay: Primary qHTS to identify gynecologic anti-cancer compounds using libraries of approved drugs and bioactive compounds (AID 1345084); details: Gynecologic cancer cell panel viability, ATPlite luminescence, 48 h, control line for the selectivity index; series mostly up to 57.5 µM; further: nearly all actives have a fitted effect of over 55% in size
How it was run: as §2

[9] = system: Tov-21-G; assay: as above; details: Gynecologic cancer cell panel viability, ATPlite luminescence, 48 h; series mostly up to 57.5 µM
How it was run: as §2

[10] = qHTS of pediatric cancer cell lines to identify multiple opportunities for drug repurposing: Primary screen for A673 cells (AID 1347092); details: A673 Ewing sarcoma viability, CellTiter-Glo ATP luminescence, 48 h; activity change, negative = cytotoxic: at 46 µM (top of the series); further: nearly all actives have a fitted effect of over 45% in size
How it was run: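 Luminescence from CellTiter-Glo, taken after 15 min at room temperature, served as the proxy for metabolically active cells following 48 h treatment. Both potency and efficacy were taken from curves fitted to the titration data.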

[11] = Quantitative High-Throughput drug screen in 47 multiple myeloma cell lines against the NCATS MIPE library collection: JIM3_ECACC cell viability assay (AID 1918963; further: nearly all actives have a fitted effect of over 35% in size)
How it was run: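 Myeloma cells (500 per well) were exposed to MIPE 4.0 compounds by pin transfer and incubated 48 hours at 37C, 5% CO2. Viability was read as ATP by CellTiter-Glo luminescence, normalised to DMSO (100%) and media-only (0%) wells.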

[12] = Quantitative High-Throughput drug screen in 47 multiple myeloma cell lines against the NCATS MIPE library collection: JJN3_DSMZ cell viability assay (AID 1918966; further: nearly all actives have a fitted effect of over 50% in size)
How it was run: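 qHTS of the MIPE 4.0 collection: 500 myeloma cells/well, 48 h drug exposure at 37C in 5% CO2, then CellTiter-Glo for 5 min at room temperature before luminescence reading.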

[13] = Quantitative High-Throughput drug screen in 47 multiple myeloma cell lines against the NCATS MIPE library collection: XG1_PLB cell viability assay (AID 1919866); further: nearly all actives have a fitted effect of over 35% in size
How it was run: as §1

[14] = Quantitative High-Throughput drug screen in 47 multiple myeloma cell lines against the NCATS MIPE library collection: PE2_PLB cell viability assay (AID 1919869); details: PE2_PLB myeloma cells viability, ATP luminescence, 48 h; series mostly up to 45.8 µM; further: nearly all actives have a fitted effect of over 35% in size
How it was run: as §1

[15] = qHTS of pediatric cancer cell lines to identify multiple opportunities for drug repurposing: Confirmatory screen for NB1643 cells (AID 1347109); further: nearly all actives have a fitted effect of over 45% in size
How it was run: (§3)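 Cells (500-1,000/well) rested 5 h, then received compounds for 48 h; metabolically active cells were measured by CellTiter-Glo luminescence. Final concentrations spanned up to 46 µM (MIPE, 11-point) or 0.59 nM-46 µM (NPC, 8-point) in primary screens, 11-point in follow-ups.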

[16] = qHTS of pediatric cancer cell lines to identify multiple opportunities for drug repurposing: Confirmatory screen for SJ-GBM2 cells (AID 1347116); further: nearly all actives have a fitted effect of over 60% in size
How it was run: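 Viability measured as metabolically active cells via CellTiter-Glo luminescence following 48 hours of compound exposure, 11-point dilutions in confirmatory testing. 500-1,000 cells/well plated 5 hours before dosing; controls were DMSO and 2.3 µM bortezomib.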

[17] = qHTS of pediatric cancer cell lines to identify multiple opportunities for drug repurposing: Confirmatory screen for RD cells (AID 1347124); details: RD rhabdomyosarcoma cell viability; activity change, negative = cytotoxic: at 45.9 µM (top of the series) unless noted;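 further: cells exposed to compound for 48 h before viability readout; nearly all actives have a fitted effect of over 65% in size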
How it was run: as §3

[18] = qHTS of pediatric cancer cell lines to identify multiple opportunities for drug repurposing: Confirmatory screen for Saos-2 cells (AID 1347127); further: nearly all actives have a fitted effect of over 60% in size
How it was run: as §3

[19] = qHTS of pediatric cancer cell lines to identify multiple opportunities for drug repurposing: Confirmatory screen for OHS-50 cells (AID 1347128);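 further: compound exposure lasted 48 h at 37 degrees C; nearly all actives have a fitted effect of over 55% in size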
How it was run: as §3

[20] = Primary qHTS for inhibitors of nuclear receptor binding SET domain protein 2 (NSD2) in an RCH-ACV wild type WT cells (2C) (AID 1645877); details: activity change, negative = cell killing: at 44.9 µM (top of the series); further: nearly all actives have a fitted effect of over 70% in size
Potency means the concentration at half of the fitted maximal effect.

With `Cc1cc(Nc2nc(N[C@@H](C)c3ncc(F)cn3)ncc2Cl)n[nH]1` the Potency [1] was active: 5.26 µM, the Potency [2] was active: 26.4 µM and the Potency [3] was active: 7.43 µM. The Potency [4] was active: 18.7 µM, the Potency [5] was inconclusive: 3.55 µM [cytotoxic, full curve, poor fit] and the Potency [6] was active: 4.47 µM.
In the case of `CC(=O)Nc1sc2c(c1-c1nc3ccccc3s1)CNC2`, the Potency [1] is reported as active: 3.72 µM, the Potency [7] is reported as active: 11.8 µM and the Potency [8] is reported as inconclusive: 39.8 µM [cytotoxic, single point]. For the same molecule, the Potency [9] was inconclusive: 17.8 µM [cytotoxic, single point].
With `CCN(CC)CCn1c(=O)c(Cc2ccc(OC)cc2)nc2ccccc21` the Potency [10] was “inactive”, the Potency [11] was “inactive” and the Potency [1] was inconclusive: 13.2 µM [cytotoxic, partial curve, poor fit]. The Potency [12] was inconclusive: 11.8 µM [cytotoxic, partial curve, poor fit], the Potency [3] was “inactive” and the Potency [4] was “inactive”. The Potency [13] was “inactive” and the Potency [7] was inconclusive: 4.18 µM [cytotoxic, full curve, poor fit].
For `O=S(=O)(N=Cc1c(O)ccc2ccccc12)c1cccs1`, the Potency [10] was inconclusive: 0.148 µM [cytotoxic, full curve], the Potency [12] was inconclusive: 11.8 µM [cytotoxic, single point] and the Potency [3] was inconclusive: 8.33 µM [cytotoxic, full curve, poor fit]. For the same molecule, the Potency [4] was active: 7.43 µM, the Potency [7] was inconclusive: 37.2 µM [cytotoxic, single point] and the Potency [14] was inconclusive: 4.18 µM [cytotoxic, full curve].
With `COc1cc2nccc(Oc3ccc(NC(=O)NC4CC4)c(Cl)c3)c2cc1C(N)=O` the Potency [10] was active: 0.469 µM, the Potency [15] was inconclusive: 29.3 µM [cytotoxic, single point] and the Potency [16] was “inactive”. The Potency [17] was inconclusive: 32.9 µM [cytotoxic, single point], the Potency [18] was inconclusive: 16.5 µM [cytotoxic, partial curve] and the Potency [19] was inconclusive: 18.5 µM [cytotoxic, partial curve]. The Potency [20] was inconclusive: 916 nM [inhibitor, full curve], the Potency [11] was active: 13.2 µM and the Potency [1] was active: 16.6 µM. The Potency [7] was inconclusive: 20.9 µM [cytotoxic, partial curve, poor fit] and the Potency [8] was “inactive”.
With `O=C(O)c1ccc2cc(-c3ccc(O)c(C45CC6CC(CC(C6)C4)C5)c3)ccc2c1` the Potency [16] was inconclusive: 0.0522 µM [cytotoxic, full curve, poor fit], the Potency [17] was inconclusive: 0.001 µM [cytotoxic] and the Potency [2] was active: 0.662 µM. The Potency [4] was inconclusive: 4.18 µM [cytotoxic, full curve, poor fit] and the Potency [13] was active: 0.526 µM.
In the case of `CC[C@H](Nc1ncnc2nc[nH]c12)c1nc2cccc(F)c2c(=O)n1-c1ccccc1`, the Potency [10] is reported as inconclusive: 0.935 µM [cytotoxic, full curve, poor fit], the Potency [11] is reported as active: 16.6 µM and the Potency [12] is reported as active: 10.5 µM. For the same molecule, the Potency [2] was inconclusive: 18.7 µM [cytotoxic, partial curve], the Potency [13] was inconclusive: 16.6 µM [cytotoxic, partial curve] and the Potency [7] was inconclusive: 4.18 µM [cytotoxic, full curve, poor fit]. For the same molecule, the Potency [14] was inconclusive: 14.8 µM [cytotoxic, partial curve].
For `CN1CCC(CNc2ccc3ncc(-c4cccc(OC(F)(F)F)c4)n3n2)CC1`, the Potency [20] was active: 2.05 µM and active: 3.32 µM, the Potency [12] was inconclusive: 20.9 µM [cytotoxic, partial curve, poor fit] and the Potency [14] was inconclusive: 8.33 µM [cytotoxic, full curve, poor fit]. The Potency [5] was inconclusive: 25.1 µM [cytotoxic, partial curve, poor fit].
In the case of `CCC(=C(c1ccccc1)c1ccc(OCCN(C)C)cc1)c1ccccc1`, the Potency [15] is reported as inconclusive: 23.3 µM [cytotoxic, single point], the Potency [16] is reported as “inactive” and the Potency [17] is reported as inconclusive: 36.9 µM [cytotoxic, single point]. The Potency [19] was inconclusive: 23.3 µM [cytotoxic, partial curve, poor fit], the Potency [12] was inconclusive: 14.8 µM [cytotoxic, partial curve, poor fit] and the Potency [13] was active: 16.6 µM.
For `CC(C)=CCCC(C)=CCCC(C)=CCSc1ccccc1C(=O)O`, the Potency [10] was active: 5.9 µM and the Potency [11] was inconclusive: 5.9 µM [cytotoxic, partial curve].
With `C/C(=C\C(=O)Nc1ccccc1C(=O)O)c1ccc2ccccc2c1` the Potency [20] was inconclusive: 25.9 µM [inhibitor, single point] and inconclusive: 29.5 µM [inhibitor, single point].
